Measurements taken from the supplement of paper PMC7666118.
The list shows a part of the results.

By UniProt entry, the sequences of proteins in these tests, tags left out. Where a name states a change or a piece, a line headed by the entry shows the natural chain unless it says otherwise.
UniProt Q13485: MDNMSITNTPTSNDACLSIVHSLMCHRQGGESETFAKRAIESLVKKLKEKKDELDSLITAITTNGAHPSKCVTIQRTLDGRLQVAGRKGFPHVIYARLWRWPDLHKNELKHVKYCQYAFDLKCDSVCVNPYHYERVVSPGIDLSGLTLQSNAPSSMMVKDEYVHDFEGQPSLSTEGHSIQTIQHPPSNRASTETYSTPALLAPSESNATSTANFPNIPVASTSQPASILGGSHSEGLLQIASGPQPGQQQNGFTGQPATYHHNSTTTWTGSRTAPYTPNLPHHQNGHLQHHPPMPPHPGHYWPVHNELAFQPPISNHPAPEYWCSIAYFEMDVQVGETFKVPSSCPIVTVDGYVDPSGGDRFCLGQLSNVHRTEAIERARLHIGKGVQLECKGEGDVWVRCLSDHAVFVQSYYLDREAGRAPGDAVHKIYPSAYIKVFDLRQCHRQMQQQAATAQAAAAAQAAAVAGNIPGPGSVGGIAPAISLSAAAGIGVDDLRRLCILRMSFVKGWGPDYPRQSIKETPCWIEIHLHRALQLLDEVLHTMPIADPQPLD
UniProt Q8IWZ8: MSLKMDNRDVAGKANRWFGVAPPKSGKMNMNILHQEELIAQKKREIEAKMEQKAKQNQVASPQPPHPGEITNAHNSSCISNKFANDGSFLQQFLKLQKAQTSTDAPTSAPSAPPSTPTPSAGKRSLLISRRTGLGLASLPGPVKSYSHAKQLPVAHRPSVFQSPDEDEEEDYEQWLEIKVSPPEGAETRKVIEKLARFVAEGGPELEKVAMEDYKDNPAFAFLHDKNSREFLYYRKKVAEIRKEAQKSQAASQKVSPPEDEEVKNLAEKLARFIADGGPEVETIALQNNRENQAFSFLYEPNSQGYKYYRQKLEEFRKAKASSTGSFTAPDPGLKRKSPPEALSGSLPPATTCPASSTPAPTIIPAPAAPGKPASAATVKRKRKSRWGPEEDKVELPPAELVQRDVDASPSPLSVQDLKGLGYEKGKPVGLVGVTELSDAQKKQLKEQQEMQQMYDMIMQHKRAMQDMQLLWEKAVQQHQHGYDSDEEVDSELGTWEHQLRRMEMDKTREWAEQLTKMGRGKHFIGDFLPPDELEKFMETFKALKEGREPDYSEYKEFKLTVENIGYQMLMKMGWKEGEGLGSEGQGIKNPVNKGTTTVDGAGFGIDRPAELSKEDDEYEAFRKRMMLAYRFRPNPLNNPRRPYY
UniProt Q9BXP2: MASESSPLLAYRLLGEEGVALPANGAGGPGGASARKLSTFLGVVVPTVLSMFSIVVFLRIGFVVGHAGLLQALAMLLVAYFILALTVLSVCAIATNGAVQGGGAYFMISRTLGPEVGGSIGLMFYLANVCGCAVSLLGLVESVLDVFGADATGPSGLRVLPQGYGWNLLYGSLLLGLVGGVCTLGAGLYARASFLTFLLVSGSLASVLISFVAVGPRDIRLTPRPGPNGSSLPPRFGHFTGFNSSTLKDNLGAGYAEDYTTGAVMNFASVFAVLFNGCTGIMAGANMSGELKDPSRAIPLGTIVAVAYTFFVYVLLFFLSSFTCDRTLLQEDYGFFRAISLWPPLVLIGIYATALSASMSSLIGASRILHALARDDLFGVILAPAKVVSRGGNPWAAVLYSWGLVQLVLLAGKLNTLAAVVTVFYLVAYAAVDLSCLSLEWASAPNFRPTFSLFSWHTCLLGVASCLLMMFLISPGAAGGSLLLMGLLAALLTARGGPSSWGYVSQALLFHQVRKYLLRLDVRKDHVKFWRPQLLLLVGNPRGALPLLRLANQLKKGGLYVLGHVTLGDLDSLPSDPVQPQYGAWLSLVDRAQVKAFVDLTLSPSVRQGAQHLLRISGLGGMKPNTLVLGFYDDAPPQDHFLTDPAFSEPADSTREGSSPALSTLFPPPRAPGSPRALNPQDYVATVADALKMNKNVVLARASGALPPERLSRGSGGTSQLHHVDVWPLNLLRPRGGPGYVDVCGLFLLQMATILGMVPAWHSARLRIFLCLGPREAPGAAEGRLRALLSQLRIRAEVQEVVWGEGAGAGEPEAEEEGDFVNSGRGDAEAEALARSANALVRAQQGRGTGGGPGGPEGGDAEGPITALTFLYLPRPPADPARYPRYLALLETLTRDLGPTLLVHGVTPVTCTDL
UniProt P53814: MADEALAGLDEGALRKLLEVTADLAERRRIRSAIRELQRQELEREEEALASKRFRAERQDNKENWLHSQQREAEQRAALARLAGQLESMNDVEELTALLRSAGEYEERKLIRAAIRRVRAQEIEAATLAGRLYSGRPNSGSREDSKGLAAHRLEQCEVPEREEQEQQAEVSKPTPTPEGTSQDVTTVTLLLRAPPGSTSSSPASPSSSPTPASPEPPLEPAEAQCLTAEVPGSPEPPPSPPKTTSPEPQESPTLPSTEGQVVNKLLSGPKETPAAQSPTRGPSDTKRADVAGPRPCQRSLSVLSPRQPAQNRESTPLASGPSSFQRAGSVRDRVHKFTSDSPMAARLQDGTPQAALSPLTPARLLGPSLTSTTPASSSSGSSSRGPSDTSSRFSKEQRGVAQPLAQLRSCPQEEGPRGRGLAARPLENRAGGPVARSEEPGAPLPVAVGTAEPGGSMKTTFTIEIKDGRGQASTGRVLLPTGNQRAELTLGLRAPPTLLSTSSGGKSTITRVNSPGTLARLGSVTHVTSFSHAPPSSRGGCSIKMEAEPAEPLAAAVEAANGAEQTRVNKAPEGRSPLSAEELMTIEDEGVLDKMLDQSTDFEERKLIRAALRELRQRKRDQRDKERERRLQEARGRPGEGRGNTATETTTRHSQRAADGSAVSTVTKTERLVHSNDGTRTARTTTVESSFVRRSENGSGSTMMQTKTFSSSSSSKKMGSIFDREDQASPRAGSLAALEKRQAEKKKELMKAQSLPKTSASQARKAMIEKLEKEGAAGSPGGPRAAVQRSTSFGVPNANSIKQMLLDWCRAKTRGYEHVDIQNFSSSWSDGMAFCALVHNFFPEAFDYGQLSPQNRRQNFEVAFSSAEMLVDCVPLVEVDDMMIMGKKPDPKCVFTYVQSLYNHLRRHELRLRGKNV
UniProt Q9H2D1: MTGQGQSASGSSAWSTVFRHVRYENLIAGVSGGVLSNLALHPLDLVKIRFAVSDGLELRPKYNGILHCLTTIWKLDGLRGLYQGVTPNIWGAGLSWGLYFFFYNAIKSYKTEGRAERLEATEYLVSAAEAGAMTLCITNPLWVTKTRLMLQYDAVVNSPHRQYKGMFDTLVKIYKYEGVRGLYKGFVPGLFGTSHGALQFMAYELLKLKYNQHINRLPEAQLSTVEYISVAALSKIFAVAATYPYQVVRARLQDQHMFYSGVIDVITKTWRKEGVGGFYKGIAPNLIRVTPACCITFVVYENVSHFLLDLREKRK
UniProt O75533, whole entry: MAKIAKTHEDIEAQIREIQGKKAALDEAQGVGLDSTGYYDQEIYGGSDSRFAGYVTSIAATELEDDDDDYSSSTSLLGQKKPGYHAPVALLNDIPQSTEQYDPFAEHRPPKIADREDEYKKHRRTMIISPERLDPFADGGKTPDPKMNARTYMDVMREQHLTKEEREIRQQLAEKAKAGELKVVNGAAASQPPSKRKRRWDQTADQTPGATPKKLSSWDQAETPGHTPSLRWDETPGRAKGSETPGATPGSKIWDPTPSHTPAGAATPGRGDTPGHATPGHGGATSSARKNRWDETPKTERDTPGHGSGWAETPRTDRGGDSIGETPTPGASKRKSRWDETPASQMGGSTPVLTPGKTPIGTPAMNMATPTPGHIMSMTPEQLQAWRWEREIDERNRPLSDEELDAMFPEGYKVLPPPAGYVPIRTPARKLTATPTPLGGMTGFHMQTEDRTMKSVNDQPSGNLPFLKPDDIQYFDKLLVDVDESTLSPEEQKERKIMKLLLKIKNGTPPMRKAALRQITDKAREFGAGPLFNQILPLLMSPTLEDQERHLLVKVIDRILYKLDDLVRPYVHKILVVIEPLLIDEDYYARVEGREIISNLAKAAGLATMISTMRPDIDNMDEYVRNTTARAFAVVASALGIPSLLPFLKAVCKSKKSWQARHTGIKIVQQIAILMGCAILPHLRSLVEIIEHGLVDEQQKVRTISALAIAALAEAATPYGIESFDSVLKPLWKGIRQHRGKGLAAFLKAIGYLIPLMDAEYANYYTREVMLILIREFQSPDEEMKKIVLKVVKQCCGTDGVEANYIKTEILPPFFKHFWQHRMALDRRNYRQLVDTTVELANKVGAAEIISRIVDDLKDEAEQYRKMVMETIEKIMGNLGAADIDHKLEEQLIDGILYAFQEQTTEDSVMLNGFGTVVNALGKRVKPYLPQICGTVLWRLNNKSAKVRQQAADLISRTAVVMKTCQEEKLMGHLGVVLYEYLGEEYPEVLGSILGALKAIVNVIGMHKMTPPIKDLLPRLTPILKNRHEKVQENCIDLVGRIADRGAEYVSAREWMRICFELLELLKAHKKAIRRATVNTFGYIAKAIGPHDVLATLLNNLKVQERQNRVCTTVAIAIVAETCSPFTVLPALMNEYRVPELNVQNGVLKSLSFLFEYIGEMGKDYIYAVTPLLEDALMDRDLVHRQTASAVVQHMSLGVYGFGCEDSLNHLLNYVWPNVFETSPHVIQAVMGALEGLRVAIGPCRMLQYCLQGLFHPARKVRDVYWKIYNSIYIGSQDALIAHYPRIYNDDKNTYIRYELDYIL
UniProt Q6PI26: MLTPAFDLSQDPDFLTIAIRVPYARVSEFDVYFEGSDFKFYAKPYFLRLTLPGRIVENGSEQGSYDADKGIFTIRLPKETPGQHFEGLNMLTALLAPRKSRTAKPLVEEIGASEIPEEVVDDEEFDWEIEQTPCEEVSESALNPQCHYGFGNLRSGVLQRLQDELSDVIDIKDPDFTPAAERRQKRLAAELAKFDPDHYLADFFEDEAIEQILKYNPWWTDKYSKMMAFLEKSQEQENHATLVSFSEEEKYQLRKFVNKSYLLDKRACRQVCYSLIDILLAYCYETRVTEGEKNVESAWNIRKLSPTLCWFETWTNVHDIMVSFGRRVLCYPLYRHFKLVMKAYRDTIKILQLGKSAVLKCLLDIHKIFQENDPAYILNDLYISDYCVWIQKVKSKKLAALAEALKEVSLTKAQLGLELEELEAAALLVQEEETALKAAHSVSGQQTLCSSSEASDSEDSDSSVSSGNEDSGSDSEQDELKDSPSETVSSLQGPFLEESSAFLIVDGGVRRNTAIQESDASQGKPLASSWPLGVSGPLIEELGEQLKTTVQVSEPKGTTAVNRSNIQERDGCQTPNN
UniProt Q08170: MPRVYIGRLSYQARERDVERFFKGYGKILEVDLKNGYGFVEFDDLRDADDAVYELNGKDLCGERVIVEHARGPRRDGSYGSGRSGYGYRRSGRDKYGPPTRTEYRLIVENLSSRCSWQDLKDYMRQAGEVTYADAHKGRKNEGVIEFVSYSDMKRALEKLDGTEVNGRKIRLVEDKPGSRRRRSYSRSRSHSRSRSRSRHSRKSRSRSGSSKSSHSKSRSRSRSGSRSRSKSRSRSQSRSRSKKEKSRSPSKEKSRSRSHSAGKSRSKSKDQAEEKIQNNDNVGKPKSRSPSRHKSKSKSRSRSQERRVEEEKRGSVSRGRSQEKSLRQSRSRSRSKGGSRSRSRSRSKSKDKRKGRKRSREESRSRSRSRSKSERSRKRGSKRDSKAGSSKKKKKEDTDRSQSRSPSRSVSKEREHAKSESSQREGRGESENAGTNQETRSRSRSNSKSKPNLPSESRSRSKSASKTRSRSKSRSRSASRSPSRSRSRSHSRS
UniProt Q9Y5X2: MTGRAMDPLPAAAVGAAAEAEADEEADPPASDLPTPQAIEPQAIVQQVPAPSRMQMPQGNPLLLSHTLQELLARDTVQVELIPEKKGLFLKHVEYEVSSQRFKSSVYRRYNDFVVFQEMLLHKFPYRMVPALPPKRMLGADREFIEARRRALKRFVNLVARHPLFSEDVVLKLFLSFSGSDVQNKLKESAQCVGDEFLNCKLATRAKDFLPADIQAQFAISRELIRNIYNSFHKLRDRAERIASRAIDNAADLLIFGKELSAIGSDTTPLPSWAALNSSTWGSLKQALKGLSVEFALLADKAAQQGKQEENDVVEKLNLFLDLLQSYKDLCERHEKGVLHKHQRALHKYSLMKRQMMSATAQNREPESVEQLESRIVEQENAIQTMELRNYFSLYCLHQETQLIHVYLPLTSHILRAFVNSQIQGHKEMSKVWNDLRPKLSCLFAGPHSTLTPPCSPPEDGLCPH
UniProt P07093: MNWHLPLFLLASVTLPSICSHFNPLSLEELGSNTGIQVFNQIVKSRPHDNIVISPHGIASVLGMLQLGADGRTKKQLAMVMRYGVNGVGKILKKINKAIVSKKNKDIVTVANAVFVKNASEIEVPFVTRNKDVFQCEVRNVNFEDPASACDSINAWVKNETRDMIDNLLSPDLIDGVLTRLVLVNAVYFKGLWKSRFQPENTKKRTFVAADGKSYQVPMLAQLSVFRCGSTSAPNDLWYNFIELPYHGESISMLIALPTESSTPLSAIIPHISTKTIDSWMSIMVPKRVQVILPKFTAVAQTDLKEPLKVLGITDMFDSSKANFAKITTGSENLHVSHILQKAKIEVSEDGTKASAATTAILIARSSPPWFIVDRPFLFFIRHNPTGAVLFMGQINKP

compound: COc1ccc(Cn2ccc3cc(C)c(C(=O)NO)cc32)cc1; test: dose-dependent thermal stabilisation call (2D-TPP, DLPTP, 10% FDR) (binary (1 = stabilised)); higher = stabilised by the compound; conditions: system: HL-60 intact cells; concentration range 0.04-10 µM
Protocol: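 2D thermal proteome profiling in intact HL-60 cells treated with BRD-3811 (0, 0.04, 0.29, 2, 10 uM) for 90 min at 37 C, then heated 3 min at one of 12 temperatures (42-63.9 C). Soluble protein was quantified by TMT10 MS. The value is the DLPTP call of the paper: dose-dependent thermal stabilisation over all temperatures at 10% FDR (F-test of a dose-response against a flat model); one experiment, one call per tested protein.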

| Target | dose-dependent thermal stabilisation call |
| --- | --- |
| SIN3A (UniProt Q96ST3) | inactive: 0 |
| SMARCAD1 (UniProt Q9H4L7) | inactive: 0 |
| SF3A3 (UniProt Q12874) | inactive: 0 |
| SNAP23 (UniProt O00161) | inactive: 0 |
| SLC35A3 (UniProt Q9Y2D2) | inactive: 0 |
| SMAD4 (UniProt Q13485) | inactive: 0 |
| SMG7 (UniProt Q92540) | inactive: 0 |
| SNX6 (UniProt Q9UNH7) | inactive: 0 |
| SLC9A7 (UniProt Q96T83) | inactive: 0 |
| SLC39A3 (UniProt Q9BRY0) | inactive: 0 |
| SLC38A1 (UniProt Q9H2H9) | inactive: 0 |
| SHKBP1 (UniProt Q8TBC3) | inactive: 0 |
| SFRS3 (UniProt P84103) | inactive: 0 |
| SF4 (UniProt Q8IWZ8) | inactive: 0 |
| SF3B3 (UniProt Q15393) | inactive: 0 |
| SMPD4 (UniProt Q9NXE4) | inactive: 0 |
| SLC37A4 (UniProt O43826) | inactive: 0 |
| SIGMAR1 (UniProt Q99720) | inactive: 0 |
| SLC25A3 (UniProt Q00325) | inactive: 0 |
| SLC4A7 (UniProt Q9Y6M7) | inactive: 0 |

| Target | dose-dependent thermal stabilisation call |
| --- | --- |
| SLC12A9 (UniProt Q9BXP2) | inactive: 0 |
| SMTN (UniProt P53814) | inactive: 0 |
| SLC25A32 (UniProt Q9H2D1) | inactive: 0 |
| SF3B1 (UniProt O75533) | inactive: 0 |
| SHQ1 (UniProt Q6PI26) | inactive: 0 |
| SFRS4 (UniProt Q08170) | inactive: 0 |
| SLC39A7 (UniProt Q92504) | inactive: 0 |
| SLC30A6 (UniProt Q6NXT4) | inactive: 0 |
| SNRPB2 (UniProt P08579) | inactive: 0 |
| SLC4A2 (UniProt P04920) | inactive: 0 |
| SGK196 (UniProt Q9H5K3) | inactive: 0 |
| SLC9A3R1 (UniProt O14745) | inactive: 0 |
| SMC2 (UniProt O95347) | inactive: 0 |
| SFXN2 (UniProt Q96NB2) | inactive: 0 |
| SNX8 (UniProt Q9Y5X2) | inactive: 0 |
| SLC7A11 (UniProt Q9UPY5) | inactive: 0 |
| SETD3 (UniProt Q86TU7) | inactive: 0 |
| SND1 (UniProt Q7KZF4) | inactive: 0 |
| SLC27A4 (UniProt Q6P1M0) | inactive: 0 |
| SERPINE2 (UniProt P07093) | inactive: 0 |

Three records drawn at random from those above, as already listed:

| Target | dose-dependent thermal stabilisation call |
| --- | --- |
| SLC9A3R1 (UniProt O14745) | inactive: 0 |
| SND1 (UniProt Q7KZF4) | inactive: 0 |
| SLC7A11 (UniProt Q9UPY5) | inactive: 0 |
